Changes are numbered by the printed parent chain. No constants are given. Whether binding was seen depends on the method and setting. Some binding calls cover weakened binding; strength is not graded here.
B1: 259 RAGE-1 (antibody, V domains shown)
VH: QVQLQQSGAELVRPGTSVKVSCKASGYAFTNYLIDWVNQRPGQGLEWIGVINPGSGGTNYNEKFTGKATLTADKSSSTAYMQLSSLTSDDSAVYFCARRRVDTMDYWGQGTSVTVSS
VL: QAVVTQESALTTSPGETVTLTCRSSTGAVTTSNYANWVQEKPDHLFTGLIGGTNNRAPGVPARFSGSLIGDKAALTITGAQTEDEAIYFCALWYSNHWVFGGGTKLTVL
B2: 283 RAGE-1 (antibody, V domains shown)
VH: QVQLQQSGAELVRPGTSVKVSCKASGYAFTNYLIEWVKQRPGQGLEWIGVINPGSGGTNYSERFKGKATLTADKSSSTAYMQLSSLTSDDSAVYFCASYRYDGGMDYWGQGTSVTVSS
VL: B1 VL with G51R
B3: 152 RAGE-1 (antibody, V domains shown)
VH: DVQLQESGPDLVKPSQSLSLTCTVTGYSITSGYSWHWIRQFPGNKLEWMGYIHYSGSTNYNPSLKSRISITRDTSKNQFFLQLNSVTTEDTATYYCARGGDFAYWGQGTLVTVSA
VL: DIVLTQSPASLAVSLGQRATISCRASKSVGTSDSSYMHWYQQKPGQPPKLLIYLASNLESGVPARFSGSGSGTDFTLNIHPVEEEDAATYYCQHSRELYTFGGGTKLEIK
B4: 501-4 RAGE-1 (antibody, V domains shown)
VH: EVMLVDSGGGLVKPGGSLKLSCAASGFTFRSYAMSWVRQTPEKRLEWVATISSGGSYTYYPDSVRGRFTTSRDNGKNTLYLQMSSLRSEDTAMYYCARHGGNYSAWFTYWGQGTLVTVSA
VL: B1 VL with G59D
B5: 529 RAGE-1 (antibody, V domains shown)
VH: EIQLQQTGPELVKPGASVKISCKASGYSFTDYIMLWVKQSHGKSLEWIGNINPYYGSTFYNLKFKGKATLTVDKSSSTAYMQLNSLTSEDSAVYYCARSDYWYFDVWGAGTTVTVSS
VL: B1 VL with A57S, W98L
B6: 158 RAGE-1 (antibody, V domains shown)
VH: QIQLVQSGPELKKPGETVKISCKASGYTFTDYSMHWVKQAPGKGLKWMGWINTETGEPTYADDFKGRFAFSLETSASTAYLLINNLKTEDTATYFCARDYLYYYAMDYWGQGTSVTVSS
VL: DVVLTQTPLSLPVNIGDQASISCKSTKSLLNSDGFTYLDWYLQKPGQSPQLLIYLVSNRFSGVPDRFSGSGSGTDFTLKISRVEAEDLGVYYCFQSNYLPLTFGGGTKVEIK
B7: 95 RAGE-1 (antibody, V domains shown)
VH: QVQLQQPGAELVKPGASVKLSCKASGYTFTSYWMHWVKQRPGQGLEWIGESNPSNGRTNYNEKFKNKATLTVDKSSSTAYMQLSSLTSEDSAVYYCARAPYYGFDYWGQGTTLTVSS
VL: B1 VL with I50T
B8: 140 RAGE-1 (antibody, V domains shown)
VH: QVQLQQPGAELVKPGASVRLSCKASGYTFTSYWMHWVKQRPGQGLEWIGEINPSNGRTNYNEKFKSKATLTVDKSSSTAYMQLSSLTSEDSAVYYCARDGLGYRPIAMDYWGQGTSVTVSS
VL: QIVLTQSPAIMSASPGEKVTISCSASSSVSYMYWYQQKPGSSPKPWIYRTSNLASGVPARFSGSGSGTSYSLTISSMEAEDAATYYCQQYHSYPPMYTFGGGTKLEIK
B9: 184 RAGE-1 (antibody, V domains shown)
VH: QVQLQQSGAELVRPGTSVKVSCKASGYAFTNYLIEWVKQRPGQGLEWIGMINPGSGGTNYNEKFKGKATLTADKSSSTAYMQLSSLTSDDSAVYFCARGRGGHYRYFDVWGAGTTVTVSS
VL: DIVLTQSPASLAVSLGQRATISCRASKSVSTSGYSYMHWYQQKPGQPPKLLIYLASHLESGVPARFSGSGSGTDFSLNIHPVEEEDAATYYCQHSRELPWTFGGGTKLEIK
B10: 210 RAGE-1 (antibody, V domains shown)
VH: EIQLQQTGPELVKPGASVKISCKASGYSFTDYIMVWVKQSHGKSLEWIGTINPYYGSTSYNLKFKGKATLTVDKSSSTANMQLNSLTSEDSAVYYCARLRLYAMDYWGQGTSVTVSS
VL: QAVVTQESALTTSPGETVTLTCRSSTGAVTTSNYANWVQEKPDHLFTGLIGGTNNRAPGVPARFSGSLIGDKAALTITGAQTEDEAIYFCALWYSNHFWVFGGGTKLTVL
B11: 240 RAGE-1 (antibody, V domains shown)
VH: B6 VH with L82Q, T88N
VL: B6 VL with N14S, R66S, L99F, K108T, V109L
B12: 183 RAGE-1 (antibody, V domains shown)
VH: EVQLQQSGTVLARPGASVKMSCKASGYSFTSYWMHWVKQRPGQGLEWIGAIFPGNSDTTYNQKFKGKAKLTAVTSASTAYMELSSLTNEDSAVYYCTGLRRGFPYWGQGTLVTVSV
VL: NIVMTQSPKSMSMSVGERVTLSCKASENVGTYVSWYQQKPEQSPKLLIYGASNRYTGVPDRFTGSGSATDFTLTISSVQAEDLADYHCGQSYSYPYTFGGGTKLEIK
B13: 56 RAGE-1 (antibody, V domains shown)
VH: QVQLQQSGPELVKPGASVRISCKASGYTFTSYFIHWVKQRPGQGLEWIGWIYPGNVNTKYNEKFKDKATLTADKSSSTAYMQLSNLTSEDSAVYFCVRGQLGDYWGQGITLTVSS
VL: DIVMTQSQKFMSTSVGDRVSVTCKASQNVGINVAWYQQKPGQSPKALIYSASYRYSGVPDRFTGSGSGTDFTLIISNVQSEDLAEYFCQQYNNYPRTFGGGTKLEIK
B14: 253 RAGE-1 (antibody, V domains shown)
VH: QVQLQQSGPELVKPGASVRISCKASGYTFTDYYIHWVKQRPGQGLEWIGWIYPGNVITKYNEKFKGKATLTADKSSSTAYMQLSSLTSEDSAVYFCARYDYDYAMDYWGQGTSVTVSS
VL: DIVMSQSPSSLAVSVGEKVTMSCKSSQTLLYSSNQKNYLAWYQQKPGQSLKLLIYWASTRESGVPDRFAGSGSGTDFTLTISSVKAEDLAVYYCQQYFGYPYTFGGGTKLEIK
B15: 326 RAGE-1 (antibody, V domains shown)
VH: EVKLVESGGGLVKPGGSLKLSCAASGFAFSSYDMSWVRQTPEKRLEWVATISSGGSYTSYPDSVQGRFTISRDNARNTLYLQMSSLRSEDTALYYCASSQLPPYAMDYWGQGTSVTVSS
VL: DIVMTQSQKFMSTSVGDRVSITCKASQNVGTAVAWYQQKPGQSPKLLIYSASNRYTGVPDRFTGSGSGTDFTLTISNMQSEDLADYFCQQYSSYPLLTFGAGTKLELK
B16: 173 RAGE-1 (antibody, V domains shown)
VH: EVKLEESGGGLVQPGGSMKLSCVASGFTFSNYWMNWVRQSPEKGLEWVAEIRLKSNNYATHYAESVKGRFTISRDDSKSSVYLQMNDLRAEDPGIYYCIRDYGNYAMDHWGQGTSVTVSS
VL: B13 VL with I31T, I74T, N93S, R96L, G100A, I106L

Sequences of proteins named here, by UniProt entry; tags and fusion partners are left off. A change or cut given only in a name is not applied to a line headed by its entry. Residues count along the entry.
UniProt Q62151, residues 23-340: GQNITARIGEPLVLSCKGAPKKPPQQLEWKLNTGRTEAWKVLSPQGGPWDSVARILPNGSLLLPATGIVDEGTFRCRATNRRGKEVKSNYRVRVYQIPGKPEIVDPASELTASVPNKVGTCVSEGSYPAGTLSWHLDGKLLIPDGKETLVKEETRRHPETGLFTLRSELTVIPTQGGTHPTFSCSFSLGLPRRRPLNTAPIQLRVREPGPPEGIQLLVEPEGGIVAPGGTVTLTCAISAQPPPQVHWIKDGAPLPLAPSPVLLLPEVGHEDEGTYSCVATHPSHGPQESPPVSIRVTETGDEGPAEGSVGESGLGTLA
UniProt Q63495, residues 23-341: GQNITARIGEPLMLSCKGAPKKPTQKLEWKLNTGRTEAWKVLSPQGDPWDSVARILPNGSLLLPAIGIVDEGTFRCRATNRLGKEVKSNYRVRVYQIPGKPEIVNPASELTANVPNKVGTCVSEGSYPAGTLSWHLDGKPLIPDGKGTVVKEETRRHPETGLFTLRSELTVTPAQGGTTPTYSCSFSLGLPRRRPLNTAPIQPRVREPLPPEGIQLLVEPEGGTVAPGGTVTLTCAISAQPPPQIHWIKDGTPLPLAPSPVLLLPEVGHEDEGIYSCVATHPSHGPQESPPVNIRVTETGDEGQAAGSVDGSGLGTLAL
UniProt Q15109: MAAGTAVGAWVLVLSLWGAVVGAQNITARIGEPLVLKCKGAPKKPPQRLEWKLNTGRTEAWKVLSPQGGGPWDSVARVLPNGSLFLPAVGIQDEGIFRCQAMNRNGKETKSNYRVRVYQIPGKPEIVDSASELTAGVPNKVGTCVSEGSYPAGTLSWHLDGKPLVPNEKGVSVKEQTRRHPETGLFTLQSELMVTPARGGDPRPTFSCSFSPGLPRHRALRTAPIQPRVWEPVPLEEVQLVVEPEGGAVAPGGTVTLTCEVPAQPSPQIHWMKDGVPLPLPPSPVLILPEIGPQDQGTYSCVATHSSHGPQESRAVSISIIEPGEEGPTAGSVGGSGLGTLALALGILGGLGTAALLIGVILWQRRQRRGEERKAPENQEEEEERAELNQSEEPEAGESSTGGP
RAGE-Fc: residues 23-344 of Q15109
sRAGE (V-C1-C2) lot LP08062: residues 23-331 of Q15109
RAGE V-C1 domains: residues 23-233 of Q15109
RAGE V domain: residues 23-121 of Q15109
RAGE C2 domain: residues 235-327 of Q15109

How the values were obtained:
[1] = molecular target: mouse sRAGE (mouse) (UniProt Q62151); assay: ELISA, O.D. 450 nm, one bar per species; plate format and antibody concentration not given
[2] = molecular target: rat sRAGE (rat) (UniProt Q63495); assay: as above
[3] = molecular target: RAGE V-C1 domains (UniProt Q15109); assay: domain mapping, Table 1
[4] = molecular target: RAGE V domain (UniProt Q15109); assay: domain mapping, Table 1
[5] = molecular target: sRAGE (V-C1-C2) lot LP08062 (human) (UniProt Q15109); assay: ELISA, O.D. 450 nm, one bar per species; plate format and antibody concentration not given
[6] = molecular target: RAGE-Fc (human) (UniProt Q15109); assay: competition ELISA: RAGE-Fc with serially diluted mAb on coated S100A6, bound RAGE-Fc detected by anti-IgG Fc peroxidase; y axis % inhibition
[7] = molecular target: RAGE C2 domain (UniProt Q15109); assay: domain mapping, Table 1
[8] = molecular target: mouse sRAGE (mouse) (UniProt Q62151); assay: Human/Cyno/rat/mouse cross reactivity, Table 1
[9] = molecular target: rat sRAGE (rat) (UniProt Q63495); assay: Human/Cyno/rat/mouse cross reactivity, Table 1
[10] = molecular target: rat sRAGE (rat) (UniProt Q63495); assay: Human/Cyno/rat cross reactivity, Table 1

Binder	binding [1]	binding [2]	binding [3]	also measured
B1	binds	binds	–	–
B2	binds	binds	–	–
B3	binds	binds	binds	binding [4]: binds
B4	binds	binds	–	–
B5	binds	binds	–	binding [5]: binds
B6	–	–	binds	binding [4]: binds; binding [6]: binds; binding [5]: binds
B7	–	binds	–	–
B8	binds	–	–	–
B9	binds	binds	–	–
B10	binds	binds	–	binding [5]: binds
B11	–	–	binds	binding [4]: binds; binding [6]: binds; binding [5]: binds
B12	binds	binds	–	–
B13	binds	binds	–	binding [7]: binds; binding [8]: binds; binding [9]: binds; binding [6]: binds; binding [10]: binds
B14	–	–	binds	–
B15	–	–	binds	–
B16	–	–	binds	binding [4]: binds

— patent publication US20120282637A1
